PubChem BioAssay AID1259254 | NCATS, 2017
Aim: 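Gene knock-downs that lead to re-replication, shown by excess G2 DNA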 (primary screen). Cells: human HCT116 colorectal cancer cells. Reagents: single siRNA against human genes. Duration: 3 days. Read-out: 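Imaged Hoechst DNA stain sorts each cell into a cycle phase by DNA amount; per plate, G2 fraction set to 0% for non-targeting and 100% for GMNN siRNA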. Reading the numbers: G2 robust z-score and G2 cells, % of GMNN control: higher = more G2 cells, more excess DNA replication; raw share of cells in G2: higher = larger share of cells with G2 DNA content. Rule for the call: 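An siRNA counts as active if its G2 robust z-score lies at least 5 MADs above the screen median; here such calls match roughly 38% of GMNN control or more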.
The whole screen tested about 59,000 reagents; shown is a part drawn at random. About 1,550 of them (2.6%) count as active. 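G2 share is only a proxy for re-replication; each gene was hit by three separate siRNAs, and active genes were retested.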 The raw values are shown without normalisation. Reagent sequences are not shown. Not given: the amount of reagent.

no.	gene knocked down	PubChem SID	G2 robust z-score	G2 cells, % of GMNN control	raw share of cells in G2 (%)	activity call
1	PCDHAC1	SID160744850	0.837	8.86	10.3	inactive
2	PCDHAC1	SID160744851	-1.15	-5.12	2.61	inactive
3	PCDHAC1	SID160744852	3.65	28.7	16.3	inactive
4	RACK1P1	SID160733823	0.0869	3.58	4.19	inactive
5	RACK1P1	SID160768919	2.36	19.6	11.1	inactive
6	RACK1P1	SID160768920	-0.545	-0.864	2.96	inactive
7	ACHE	SID160777618	0.0781	3.52	5.3	inactive
8	ACHE	SID160777629	-0.362	0.42	5.22	inactive
9	ACHE	SID160777638	-0.0216	2.82	5.68	inactive
10	KIAA0586	SID160723084	-0.355	0.472	5.54	inactive
11	KIAA0586	SID160723086	0.384	5.67	6.31	inactive
12	KIAA0586	SID160723087	-0.0347	2.72	4.4	inactive
13	MLF2	SID160719609	-0.0235	2.8	6.78	inactive
14	MLF2	SID160719610	2.34	19.4	10.9	inactive
15	MLF2	SID160719612	1.39	12.8	9.02	inactive
16	FNBP4	SID160736102	0.113	3.76	5.83	inactive
17	FNBP4	SID160736103	-0.0438	2.66	5.09	inactive
18	FNBP4	SID160736104	-0.632	-1.48	2.78	inactive
19	PPP2R1A	SID160714789	8	59.3	24.1	active
20	PPP2R1A	SID160714790	6.23	46.8	18.4	active
21	PPP2R1A	SID160714791	4.74	36.3	14.4	inactive
22	ADAM18	SID160720738	3.86	30.1	16.1	inactive
23	ADAM18	SID160720739	1.16	11.1	8.84	inactive
24	ADAM18	SID160720741	-0.924	-3.54	2.59	inactive
25	PALLD	SID160735202	-0.493	-0.499	3.69	inactive
26	PALLD	SID160735211	-1.29	-6.08	2.12	inactive
27	PALLD	SID160735220	-1.09	-4.7	4.48	inactive
28	PIWIL3	SID160767872	-0.34	0.572	3.84	inactive
29	PIWIL3	SID160767873	1.29	12.1	7.99	inactive
30	PIWIL3	SID160767874	2.61	21.3	10.4	inactive
31	ABCA10	SID160728230	1.42	13	11.3	inactive
32	ABCA10	SID160728231	0.0919	3.61	5.01	inactive
33	ABCA10	SID160728232	-1.2	-5.49	4.31	inactive
34	CCDC148	SID160757020	1.21	11.5	8.51	inactive
35	CCDC148	SID160757021	2.34	19.4	9.26	inactive
36	CCDC148	SID160757022	-0.59	-1.18	2.15	inactive
37	HS3ST1	SID160723542	-0.483	-0.432	4.58	inactive
38	HS3ST1	SID160723543	4.89	37.4	19.3	inactive
39	HS3ST1	SID160723544	0.373	5.59	5.11	inactive
40	UBP1	SID160718560	-0.0316	2.75	4.55	inactive
41	UBP1	SID160718561	1.42	12.9	10.9	inactive
42	UBP1	SID160718562	-0.712	-2.05	2.37	inactive
43	MORF4L1	SID160729554	-0.602	-1.27	3.43	inactive
44	MORF4L1	SID160729555	-0.345	0.538	6.69	inactive
45	MORF4L1	SID160729556	0.443	6.09	8.34	inactive
46	ZNF574	SID160747925	0.0236	3.13	3.9	inactive
47	ZNF574	SID160747926	4.11	31.9	20.3	inactive
48	ZNF574	SID160747927	1.56	14	8.02	inactive
49	GSTM2	SID160774654	-0.159	1.85	5.72	inactive
50	GSTM2	SID160774655	-0.618	-1.38	3.69	inactive
51	GSTM2	SID160774657	0.112	3.76	7.11	inactive
52	GJA10	SID160752611	-0.232	1.34	4.55	inactive
53	GJA10	SID160752612	2.98	23.9	10.5	inactive
54	GJA10	SID160752613	-0.215	1.45	2.85	inactive
55	FYN	SID160767995	-0.976	-3.9	4.32	inactive
56	FYN	SID160768003	-1.66	-8.68	2.48	inactive
57	FYN	SID160768013	0.328	5.28	5.88	inactive
58	IKZF1	SID160728162	-0.948	-3.7	2.29	inactive
59	IKZF1	SID160728164	1.38	12.7	11.6	inactive
60	IKZF1	SID160728165	-0.588	-1.17	2.85	inactive
61	REEP5	SID160719459	0.132	3.89	6.86	inactive
62	REEP5	SID160719460	-0.562	-0.984	3.5	inactive
63	REEP5	SID160719461	-0.217	1.44	3.86	inactive
64	TMEM143	SID160733596	-0.841	-2.95	2.19	inactive
65	TMEM143	SID160743376	-1.55	-7.92	1.48	inactive
66	TMEM143	SID160743377	2.73	22.2	13.3	inactive
67	PRPS2	SID160715080	0.193	4.33	7.04	inactive
68	PRPS2	SID160715081	-1.62	-8.44	2.57	inactive
69	PRPS2	SID160715082	-0.753	-2.33	3.2	inactive
